From PubChem BioAssay AID493014 (National Center for Advancing Translational Sciences (NCATS), 2011)
This is one part of the list. These are further read-outs of the screen, such as a control signal, another cell line or another target. No call is given for them. Compounds called inactive in the main read-out are mostly missing here. Potencies come from curve fits of mixed quality, noted in brackets.

Assay: qHTS Assay to Find Inhibitors of Chronic Active B-Cell Receptor Signaling
Settings: ABC-DLBCL IkBa-CBG/CBR reporter, luminescence ratio (green luciferase fused to IkBa over red control in TMD8 lymphoma cells), 4 h
How it was run: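 TMD8 human ABC-DLBCL cells with doxycycline-inducible IκBα–green luciferase fusion and unfused red luciferase, in 0.5% FBS medium; compounds up to 46 uM, 4 h at 37C. Green/red luminescence ratio, filter-overlap corrected, fitted to concentration-response curves.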

[1] = measured here: CBR red luminescence, cell number
[2] = measured here: IkBa-CBG green luminescence

Row | Structure (SMILES) | AC50 [1] | AC50 [2]
1 | CCOC(=O)Cc1nnc(NC(=O)C(CC)Sc2nc(C)cc(C)n2)s1 (stereo not given) | 14.6 µM [rising, single point] | –
2 | CSc1cc(-c2ccncc2)nc(-c2ccc(Cl)cc2)c1 | 6.31 µM [rising, single point] | –
3 | CCOc1ccc(Br)cc1S(=O)(=O)Nc1ccc(Cl)c(S(=O)(=O)N(C)C)c1 | 6.51 µM [rising, partial curve, poor fit] | –
4 | N/C(=N\OC(=O)c1cccc2ccccc12)c1ccccn1 | 7.94 µM [falling, partial curve, poor fit] | –
5 | CCOC(=O)c1c(-c2ccc3ccccc3c2)csc1NC(=O)CCCC(=O)O | 7.31 µM [falling, partial curve] | –
6 | CCn1cc(C(=O)O)c(=O)c2cnc(N3CCN(C(=S)NC(=O)c4ccccc4Cl)CC3)nc21 | 0.891 µM [rising, full curve, poor fit] | –
7 | S=c1nc(-c2ccccc2)[nH]c2ccc(Br)cc12 | 0.282 µM [rising, full curve, poor fit] | –
8 | CCCc1ccc(OCc2ccc(C(=O)NCc3cccnc3)o2)c(OC)c1 | 7.08 µM [falling, full curve, poor fit] | –
9 | Cc1ccc(C(=O)Nc2ccccc2C(=O)NC(Cc2c[nH]c3ccccc23)C(=O)O)cc1 (stereo not given) | 22.4 µM [falling, single point] | –
10 | CC(C)C(=O)Nc1ccc(NC(=O)c2cc3ccccc3o2)cc1 | 11.6 µM [rising, partial curve] | –
11 | Cc1cc(OCC(=O)Nc2ccccc2C)no1 | 29.1 µM [falling, single point] | –
12 | S=C(Nc1ccc(N2CCOCC2)cc1)Nc1ccc2nc(-c3ccco3)c(-c3ccco3)nc2c1 | 29.1 µM [rising, single point] | –
13 | NC(N)=Nc1nc2ccc([N+](=O)[O-])cc2[nH]1 | 5.62 µM [rising, single point] | –
14 | COc1cc(C#Cc2c(-c3cncn3C)n(C)c3ccc(-c4cc(OC)c(OC)c(OC)c4)cc23)cc(OC)c1 | 18.4 µM [falling, single point] | –
15 | Oc1c(N=NC(=S)Nc2ccccc2F)c2ccccc2n1Cc1ccccc1F | 14.1 µM [falling, partial curve, poor fit] | –
16 | COc1cc2c(C#Cc3cccnc3)c(-c3ccsc3)oc(=O)c2cc1OC | 1.64 µM [rising, partial curve, poor fit] | –
17 | Cc1ccc(N=Nc2c(N)nn3c(C)cc(C)nc23)cc1 | 29.1 µM [rising, single point] | –
18 | N#C/C(=C\c1ccc(N2CCOCC2)o1)C(=O)Nc1ccc(O)cc1 | 0.891 µM [falling, full curve] | –
19 | C=CCNC(=S)N/N=C/c1ccc(C(C)(C)C)cc1 | – | 10 µM [falling, partial curve]
20 | Cc1cccc(OCc2nc3ccccc3n2C)c1 | 2.82 µM [rising, partial curve, poor fit] | –
21 | COC(=O)CC1=NN(c2nc3ccccc3s2)C(=O)/C1=C/N(C)C | 1.78 µM [falling, partial curve] | –

Row | Structure (SMILES) | AC50 [1] | AC50 [2]
22 | CCNC(=S)Nc1cccc(NC(=O)c2ccccc2O)c1 | 35.5 µM [falling, single point] | –
23 | CCCCSCc1cc(C(=O)O)oc1C(C)(C)C | 15.8 µM [rising, single point] | –
24 | N#Cc1c(NCCCO)nc(NCc2ccccc2)c2c1CCN(Cc1ccccc1)C2 | 6.31 µM [rising, single point] | –
25 | O=C(Nc1ccc(-c2nc3ccccc3[nH]2)cc1)c1c(F)c(F)c(F)c(F)c1F | 15.8 µM [falling, single point] | –
26 | CC1CCN(c2nc(/C=C/c3ccccc3)nc3ccccc23)CC1 | 20.6 µM [rising, partial curve, poor fit] | –
27 | Cc1ccc(O)c(-c2cc(C(F)(F)F)[nH]n2)c1 | 20 µM [rising, single point] | –
28 | O=C(c1ccccn1)C1CCCN(Cc2cn[nH]c2-c2cc3ccccc3o2)C1 (stereo not given) | 15.8 µM [falling, partial curve, poor fit] | –
29 | Cc1cc(Nc2sc(C(=O)c3ccc(F)cc3)c(N)c2C(=O)Nc2ccc(F)cc2)ccc1Cl | 35.5 µM [falling, single point] | –
30 | CCOC(=O)c1c(NC(=O)CNCCOC)sc2c1CCCC2 | 6.51 µM [rising, single point] | –
31 | NC(=O)c1ccccc1NC(=O)NC1CCCCC1 | 29.1 µM [falling, single point] | –
32 | CCOC(=O)C1CCN(C(=O)c2cc3cc4cc(OC)ccc4nc3o2)CC1 | 0.731 µM [falling, full curve] | –
33 | COc1ccc(NC(=O)C2(c3cccs3)CCOCC2)cc1Cl | 35.5 µM [rising, single point] | –
34 | COc1ccc(N2CCOCC2)c(NC(=O)c2cc3ccccc3o2)c1 | 3.55 µM [falling, partial curve, poor fit] | –
35 | COc1ccc(S(=O)(=O)NC(CC(=O)NCCc2ccccc2)c2ccco2)cc1 (stereo not given) | 29.1 µM [falling, single point] | –
36 | CNc1ccc(/C=C(\CCC(=O)O)c2nc3ccccc3s2)cc1[N+](=O)[O-] | 20.6 µM [rising, single point] | 20.6 µM [falling, partial curve, poor fit]
37 | COc1ccc(CC(=O)Nc2nnc(SCc3ccccc3)s2)cc1S(=O)(=O)N1CCOCC1 | 3.26 µM [rising, partial curve, poor fit] | –
38 | Fc1ccccc1N1CCN(CCCc2ccccc2)CC1 | 7.08 µM [rising, partial curve, poor fit] | –
39 | COc1cccc(NC(=O)CN(C2=NC3CS(=O)(=O)CC3S2)c2cccc(C)c2)c1 (stereo not given) | 12.6 µM [falling, single point] | –
40 | COc1ccc(C2NC(c3ccc(OC)cc3)C(C)C(=O)C2C)cc1 (stereo not given) | 0.112 µM [falling, full curve, poor fit] | –
41 | O=C1OCCC1Sc1nc2ccccc2c(=O)n1-c1ccc(F)cc1 (stereo not given) | 0.282 µM [rising, full curve, poor fit] | –
42 | CC(=O)NC(c1cccs1)c1cc(F)c2cccnc2c1O (stereo not given) | 32.6 µM [falling, single point] | –

Row | Structure (SMILES) | AC50 [1] | AC50 [2]
43 | CCN(CC(=O)Nc1ccc(NC(C)=O)cc1)C(=O)Cc1cccc2ccccc12 | 7.94 µM [falling, partial curve, poor fit] | –
44 | CCN(C[C@H]1N[C@@](CC)(C(=O)OC)[C@H]2C(=O)N(C)C(=O)[C@@H]12)S(=O)(=O)c1ccc(OC)cc1 | 0.366 µM [rising, full curve, poor fit] | –
45 | Cc1nc2ccccc2c(=O)n1-c1ccc(NS(=O)(=O)c2ccccc2)cc1 | 7.31 µM [falling, partial curve, poor fit] | –
46 | COc1ccc(C(CC(=O)NCCCN2CCOCC2)NS(=O)(=O)c2ccc(C)cc2)cc1 (stereo not given) | 12.6 µM [rising, single point] | –
47 | Nc1c(-c2ccccc2)c(CSc2nc3ccccc3[nH]2)nn1-c1ccc(C(=O)O)cc1 | 16.4 µM [falling, partial curve, poor fit] | –
48 | CCc1ccc(/C=C2/SC(=S)N(CCC(=O)Nc3cccc(C(=O)O)c3)C2=O)cc1 | 12.6 µM [falling, partial curve] | –
49 | CN(Cc1cccnc1)Cc1cn(C)nc1-c1ccc(Oc2ccccc2)cc1 | 20 µM [rising, partial curve, poor fit] | –
50 | COc1ccc2ccc(OC)c(/C=N/n3cnnc3)c2c1 | 0.631 µM [rising, full curve, poor fit] | –
51 | CC1(C)CC(=O)c2sc(NC(=O)c3ccc4ncsc4c3)nc2C1 | 8.2 µM [falling, partial curve] | –
52 | c1ccc(COc2ccc(CN3CCN(c4ccccn4)CC3)cc2)cc1 | 6.51 µM [rising, single point] | –
53 | O=C(CCCOc1ccccc1)NN1C(=O)NC2(CCCCC2)C1=O | 1.3 µM [rising, partial curve, poor fit] | –
54 | COc1ccc(OCc2nnc(SCC(=O)Nc3ccccc3F)o2)cc1 | 12.6 µM [falling, partial curve, poor fit] | –
55 | CN(Cc1cnn(C)c1)Cc1nc(COc2ccccc2)no1 | 11.2 µM [rising, partial curve, poor fit] | –
56 | Cn1c(SCC(=O)Nc2ccccc2)nc2ccccc2c1=O | 7.94 µM [falling, partial curve] | –
57 | CC1=CC(C)(C)N2C(=O)C(=Nc3ccc(O)cc3)c3cccc1c32 | – | 35.5 µM [falling, partial curve, poor fit]
58 | O=C(Nc1nc2c(Cl)ccc(Cl)c2s1)C1CC1 | 0.562 µM [falling, full curve] | 2.82 µM [rising, full curve, poor fit]
59 | O=C(OCC(=O)C12CC3CC(CC(C3)C1)C2)c1ccc(CO)cc1 | 0.461 µM [rising, full curve, poor fit] | –
60 | NC(=S)N/N=C1\CCSc2ccc(Cl)cc21 | 10 µM [falling, partial curve, poor fit] | –
61 | O=C(Nc1cccc(F)c1)C1CCN(C(=O)c2ccccc2Cl)CC1 | 29.1 µM [rising, single point] | –
62 | O=C(NC1CCC(O)CC1)c1cccc2cccnc12 (stereo not given) | 10 µM [rising, partial curve] | –
63 | CCN1C(=O)C(C(=O)Nc2ccc(OC)cc2)C2CC1(C)Oc1ccccc12 (stereo not given) | 3.66 µM [rising, single point] | –

Already shown: 4 of the compounds above.
Row | Structure (SMILES) | AC50 [1] | AC50 [2]
60 | NC(=S)N/N=C1\CCSc2ccc(Cl)cc21 | 10 µM [falling, partial curve, poor fit] | –
61 | O=C(Nc1cccc(F)c1)C1CCN(C(=O)c2ccccc2Cl)CC1 | 29.1 µM [rising, single point] | –
62 | O=C(NC1CCC(O)CC1)c1cccc2cccnc12 (stereo not given) | 10 µM [rising, partial curve] | –
63 | CCN1C(=O)C(C(=O)Nc2ccc(OC)cc2)C2CC1(C)Oc1ccccc12 (stereo not given) | 3.66 µM [rising, single point] | –

Some values from the entries so far.
Entry of Cc1cc(OCC(=O)Nc2ccccc2C)no1 under AC50 [1]: 29.1 µM [falling, single point]
Entry of NC(=O)c1ccccc1NC(=O)NC1CCCCC1 under AC50 [1]: 29.1 µM [falling, single point]
